These are yes or no findings as the source states them, for the method shown. Binding seen in cells or lysates may run through a third protein. Some binding calls cover weakened binding; strength is not graded here.
Biological target: Phosphodiesterase 9 A (PDE9A) (human (endogenous in AGS and HGC27)) (UniProt O76083)
Experiment: co-IP; endogenous proteins in AGS and HGC27 cell lysates; lysate incubated overnight with the primary antibody, then Protein A/G-PLUS Agarose beads for 4 h; eluates analysed by SDS-PAGE and WB; 4 °C

By UniProt entry, the sequences of proteins in these tests, tags left out.
UniProt O76083: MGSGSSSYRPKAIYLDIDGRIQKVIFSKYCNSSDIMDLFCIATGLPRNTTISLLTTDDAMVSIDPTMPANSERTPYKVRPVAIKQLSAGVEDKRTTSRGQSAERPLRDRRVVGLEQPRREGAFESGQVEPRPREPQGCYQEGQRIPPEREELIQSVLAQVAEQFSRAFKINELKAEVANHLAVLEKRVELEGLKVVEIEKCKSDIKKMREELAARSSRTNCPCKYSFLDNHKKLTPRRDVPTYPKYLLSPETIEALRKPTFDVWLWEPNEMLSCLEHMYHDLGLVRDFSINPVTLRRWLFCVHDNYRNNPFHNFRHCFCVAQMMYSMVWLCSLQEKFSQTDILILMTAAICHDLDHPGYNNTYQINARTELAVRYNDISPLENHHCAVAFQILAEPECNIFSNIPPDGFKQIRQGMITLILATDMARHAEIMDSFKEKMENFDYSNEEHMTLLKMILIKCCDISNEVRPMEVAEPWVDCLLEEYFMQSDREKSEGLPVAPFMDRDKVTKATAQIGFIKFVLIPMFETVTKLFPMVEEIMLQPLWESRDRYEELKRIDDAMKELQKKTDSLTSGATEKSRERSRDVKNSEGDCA
UniProt Q13049: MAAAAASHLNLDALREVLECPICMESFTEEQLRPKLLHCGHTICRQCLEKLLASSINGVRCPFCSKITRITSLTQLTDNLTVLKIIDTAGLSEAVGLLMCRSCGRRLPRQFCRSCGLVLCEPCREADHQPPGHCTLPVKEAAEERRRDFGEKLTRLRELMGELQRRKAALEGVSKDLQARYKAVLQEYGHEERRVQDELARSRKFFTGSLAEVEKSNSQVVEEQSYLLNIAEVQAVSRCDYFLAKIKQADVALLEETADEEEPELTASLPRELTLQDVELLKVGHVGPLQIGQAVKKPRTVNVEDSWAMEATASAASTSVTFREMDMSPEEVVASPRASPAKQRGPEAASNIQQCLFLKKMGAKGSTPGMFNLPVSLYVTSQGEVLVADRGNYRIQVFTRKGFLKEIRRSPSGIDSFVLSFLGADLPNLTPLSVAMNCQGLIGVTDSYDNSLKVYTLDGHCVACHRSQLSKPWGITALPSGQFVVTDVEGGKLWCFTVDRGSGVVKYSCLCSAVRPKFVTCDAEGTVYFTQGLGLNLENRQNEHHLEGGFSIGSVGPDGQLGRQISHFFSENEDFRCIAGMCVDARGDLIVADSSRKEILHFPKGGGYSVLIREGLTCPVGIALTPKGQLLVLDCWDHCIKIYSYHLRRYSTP

binding: binds
Substance: tripartite motif 32 (TRIM32) (from UniProt Q13049 1-653)

Source: article PMC12574041
